Data source: PubChem BioAssay AID602196 (INSERM, 2012)

- Assay: 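Modifiers of cisplatin sensitivity in A549 cells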
- System: human A549 lung cancer cells
- Reagents: siRNA pair against human genes
- Duration: 48 h transfection before cisplatin; time from cisplatin to read-out not stated
- Conditions: cisplatin at a dose killing half of control-siRNA cells; exact dose and duration not given
- Measured: 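Shift in cisplatin death relative to control siRNA, from -50 (all cells die) to +50 (no cells die); siRNAs harmful on their own scored 0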
- Reading the numbers: two-siRNA summed score (-2 to +2): higher = both siRNAs protect from cisplatin killing; -2 means both sensitise; mean protection from cisplatin (shift in death) and protection from cisplatin (shift in death), siRNA C and protection from cisplatin (shift in death), siRNA D: higher = protection from cisplatin killing
- Active means: 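Each siRNA scores 0 if harmful alone by LDH or WST-1, otherwise +1 if it reduces and -1 if it increases cisplatin killing; a gene is active when both siRNAs agree (sum +2 or -2)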
- Meaning of the calls: active = both siRNAs shift cisplatin killing the same way; inactive = no consistent shift, or siRNA harmful alone
This is one part, drawn at random, of about 23,000 deposited reagents. 455 of them (2%) count as active. 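Active includes both protection and sensitisation; some change values fall well beyond the stated -50 to +50 range.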 A number with no mark means an inactive call. The record does not give: the amount of reagent.

gene	PubChem SID	two-siRNA summed score (-2 to +2)	mean protection from cisplatin (shift in death) (%)	protection from cisplatin (shift in death), siRNA C (%)	protection from cisplatin (shift in death), siRNA D (%)
LOC388141	SID131513800	0	7	-1.7	15.8
SLC12A7	SID131507540	0	0	6.1	-6.1
LOC440106	SID131514660	0	8.1	13.1	3.1
TBX10	SID131521329	1	13	23.2	2.8
CWC22	SID131505891	0	-2.4	5.3	-10.1
OCRL	SID131512892	0	6	7.6	4.4
LOC442570	SID131510284	0	3.1	4.8	1.3
NPRL2	SID131502826	0	-27	-0.4	-53.6
JPH4	SID131506380	0	-1.6	-8.3	5.1
HEPACAM2	SID131511181	0	4.1	11.1	-3
GSN	SID131518415	0	19.4	26.6	12.1
LOC441577	SID131516354	0	10.7	12.2	9.3
KRT19	SID131502494	-1	-1.9	10.7	-14.4
LOC284749	SID131518132	0	16.8	25	8.6
LINC00639	SID131506722	0	-1.1	-3.2	1.1
FICD	SID131504879	0	-4.3	8.9	-17.4
SZT2	SID131503154	0	-12.8	-13.4	-12.2
SZT2	SID131513446	0	6.6	14.3	-1.1
CADPS2	SID131508713	0	1.4	0.7	2.1
FIGNL1	SID131512184	0	5.2	5.6	4.8
SERPI-2	SID131501967	-1	-6.2	-1.4	-11.1
SCMH1	SID131502702	-1	2.6	15.6	-10.4
LOC441342	SID131511412	0	4.3	4.8	3.8
CPEB3	SID131521432	1	13.4	1.3	25.5
ATP5PO	SID131504993	0	-4	-10	2
COL4A1	SID131521213	1	12.6	9.8	15.5
ITPRIP	SID131521822	1	15	10.8	19.2
FAU	SID131516088	0	10.2	-1.1	21.5
ADAMTS19	SID131504354	0	-5.7	-15.3	3.9
FBXO4	SID131505634	0	-2.8	4.1	-9.7
ZNF691	SID131507261	0	-0.4	-1.9	1.2
ANKLE1	SID131509757	0	2.5	-0.6	5.5
LTBP2	SID131505661	0	-2.8	5.6	-11.2
ACE2	SID131517435	0	13.4	22.6	4.2
LOC439991	SID131512078	0	5.1	5.5	4.7

Sorted by “protection from cisplatin (shift in death), siRNA C (%)” (high to low): some entries from above.
gene	PubChem SID	two-siRNA summed score (-2 to +2)	mean protection from cisplatin (shift in death) (%)	protection from cisplatin (shift in death), siRNA C (%)	protection from cisplatin (shift in death), siRNA D (%)
TBX10	SID131521329	1	13	23.2	2.8
LOC440106	SID131514660	0	8.1	13.1	3.1
SLC12A7	SID131507540	0	0	6.1	-6.1
CWC22	SID131505891	0	-2.4	5.3	-10.1

More results follow.
gene	PubChem SID	two-siRNA summed score (-2 to +2)	mean protection from cisplatin (shift in death) (%)	protection from cisplatin (shift in death), siRNA C (%)	protection from cisplatin (shift in death), siRNA D (%)
CLCF1	SID131515128	0	8.7	15.6	1.8
UTS2B	SID131508259	0	0.8	7.7	-6.1
NIPA1	SID131522635	1	21	16.9	25
BET1	SID131501939	-1	-6.5	3.9	-16.9
LOC390226	SID131514074	0	7.3	15.1	-0.4
HMCN1	SID131522837	1	26.2	34.1	18.4
ELL	SID131504242	0	-6	-5.6	-6.4
PKDREJ	SID131503056	0	-14.5	-3.6	-25.4
KLHDC7A	SID131521477	1	13.7	12.9	14.4
LOC399986	SID131515001	0	8.5	18.8	-1.8
LOC441666	SID131522816	1	25.4	20.3	30.5
LOC200383	SID131518436	0	19.6	9.9	29.3
PPP1R15B	SID131508823	0	1.5	-6.4	9.4
ERF	SID131508360	0	1	-0.9	2.8
DPH6	SID131511443	0	4.4	7.1	1.7
TMEM59	SID131514033	0	7.3	2.5	12.1
ENGASE	SID131509126	0	1.8	-2.8	6.5
LOC440992	SID131515670	0	9.5	7.3	11.7
LYPD6B	SID131520561	1	10.3	15.1	5.6
PDLIM5	SID131519364	1	5.1	15.9	-5.8
RHBDD3	SID131503596	0	-9	3.1	-21.1
ZNF549	SID131506499	0	-1.4	-3.7	0.9
